The record followed here is PMC5026343.

Experiment [1] deals with T1, female-specific storage protein SP1 of Bombyx mori (Bombyx mori) (UniProt P09179).
T1 sequence: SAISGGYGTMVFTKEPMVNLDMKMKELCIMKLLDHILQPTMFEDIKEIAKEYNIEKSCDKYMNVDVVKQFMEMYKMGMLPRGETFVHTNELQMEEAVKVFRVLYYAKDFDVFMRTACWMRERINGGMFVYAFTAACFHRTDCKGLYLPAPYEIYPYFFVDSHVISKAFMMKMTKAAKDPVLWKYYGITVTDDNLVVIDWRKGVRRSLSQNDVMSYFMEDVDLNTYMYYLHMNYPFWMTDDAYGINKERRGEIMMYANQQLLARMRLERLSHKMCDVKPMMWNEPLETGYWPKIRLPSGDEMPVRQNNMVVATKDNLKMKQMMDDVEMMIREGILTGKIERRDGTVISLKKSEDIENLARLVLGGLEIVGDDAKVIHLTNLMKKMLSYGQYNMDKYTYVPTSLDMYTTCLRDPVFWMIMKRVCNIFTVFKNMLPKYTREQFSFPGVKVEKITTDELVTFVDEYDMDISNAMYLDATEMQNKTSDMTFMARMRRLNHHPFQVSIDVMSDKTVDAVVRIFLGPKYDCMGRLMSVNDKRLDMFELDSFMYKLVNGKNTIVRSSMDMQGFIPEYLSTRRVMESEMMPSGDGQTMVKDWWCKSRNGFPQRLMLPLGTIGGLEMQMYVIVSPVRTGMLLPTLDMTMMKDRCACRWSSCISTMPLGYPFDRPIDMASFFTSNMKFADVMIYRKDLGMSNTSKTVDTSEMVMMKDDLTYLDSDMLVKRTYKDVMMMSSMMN
The experiment is described as follows: far-Western, overlay or dot blot; about 1 μg pure SP1, SP2 and BSA separated by 10% SDS-PAGE, transferred to PVDF and renatured on the membrane; incubated with 30 μg pure LBD1; then standard western blotting; both purified.

Experiment [2] concerns the target T2, storage protein SP2 of Bombyx mori (Bombyx mori) (UniProt P20613).
T2 sequence: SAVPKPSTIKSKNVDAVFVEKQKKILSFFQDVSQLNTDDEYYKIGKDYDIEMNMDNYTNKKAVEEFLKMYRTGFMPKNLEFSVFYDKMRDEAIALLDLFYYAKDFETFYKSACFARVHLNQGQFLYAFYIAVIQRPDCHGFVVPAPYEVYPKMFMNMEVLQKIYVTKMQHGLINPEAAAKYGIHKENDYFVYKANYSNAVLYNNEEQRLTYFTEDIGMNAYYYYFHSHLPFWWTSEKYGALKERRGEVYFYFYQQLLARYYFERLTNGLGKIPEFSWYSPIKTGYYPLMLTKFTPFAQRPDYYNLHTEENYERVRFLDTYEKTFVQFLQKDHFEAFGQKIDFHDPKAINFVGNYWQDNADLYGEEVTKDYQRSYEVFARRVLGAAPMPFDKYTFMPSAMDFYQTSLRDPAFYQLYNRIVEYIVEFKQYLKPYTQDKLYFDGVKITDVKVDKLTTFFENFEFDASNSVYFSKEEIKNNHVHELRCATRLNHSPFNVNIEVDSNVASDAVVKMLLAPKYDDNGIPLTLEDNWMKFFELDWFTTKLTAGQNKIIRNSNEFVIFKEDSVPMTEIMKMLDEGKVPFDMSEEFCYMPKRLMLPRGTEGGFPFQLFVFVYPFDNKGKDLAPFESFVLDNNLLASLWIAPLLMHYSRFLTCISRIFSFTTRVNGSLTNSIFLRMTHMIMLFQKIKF
The experiment is described as above.

Experiment [3] addresses LBD1, first ligand binding domain of Bombyx mori vitellogenin receptor (BmVgR) (Bombyx mori). The experiment is described as follows: co-IP; pure LBD1 incubated with pure SP1 or SP2, then with anti-LBD1 on protein A/G PLUS-agarose beads overnight; washing buffer 20 mM Tris-HCl pH 8.0, 150 mM NaCl, 5% glycerol; western blot of the precipitates; both purified. In general terms: Immunoblotting shows a protein as a band on a membrane.

For experiment [4] the target is unchanged. Nature of the experiment: condition: SP2 210 μM in the syringe; LBD1 16.9~20 μM in the cell; ITC; MicroCal VP-ITC, 25°C, 20 mM Tris-HCl pH 8.0, 150 mM NaCl; LBD1 or mutant in the cell (16.9~20 μM), SP1/SP2 in the syringe (210 μM); single-site binding model; both purified.
For experiment [5] the target is unchanged. Nature of the experiment: ITC; MicroCal VP-ITC, 25°C, 20 mM Tris-HCl pH 8.0, 150 mM NaCl; LBD1 or mutant in the cell (16.9~20 μM), SP1/SP2 in the syringe (210 μM); single-site binding model; both purified. On the technique in general: In ITC the heat of successive injections is recorded.
For experiment [6], the target named is LBD1-ΔR2 (Bombyx mori). The experiment is described as above.
Experiment [7] addresses LBD1-ΔR4 (Bombyx mori). The description is as above.
Experiment [8] concerns the target LBD1-ΔR1 (Bombyx mori). The experiment is described as follows: condition: SP1 210 μM in the syringe; mutant 16.9~20 μM in the cell; ITC; MicroCal VP-ITC, 25°C, 20 mM Tris-HCl pH 8.0, 150 mM NaCl; LBD1 or mutant in the cell (16.9~20 μM), SP1/SP2 in the syringe (210 μM); single-site binding model; both purified.
Experiment [9] addresses LBD1-ΔR3 (Bombyx mori). The description is as above.
Experiment [10] deals with His6-SUMO-LBD1 (first ligand binding domain of Bombyx mori vitellogenin receptor, tagged) (Bombyx mori). The experiment is described as follows: pull-down; 2 mg His6-SUMO-LBD1 on 0.5 ml Ni-NTA agarose beads; 5 mL fresh silkworm larval hemolymph, 4°C, 2 h; washed with 20 mM Tris-HCl pH 8.0, 500 mM NaCl; eluted with 80-500 mM imidazole; band on SDS-PAGE identified by MALDI-TOF/TOF MS; only the target purified.

Results are given in words; binding and its absence hold for the method and conditions named. For some assays here: Binding can be weak; no strength is given. For some assays here: In cells and extracts the contact can be indirect.

Turning to “LBD1, first ligand binding domain of Bombyx mori vitellogenin receptor (BmVgR) (domain or fragment)”, the binding result in experiment [1] was “binds”; in [2], “no binding (tested: 30 μg pure LBD1 on about 1 μg SP2)”.

B1: storage protein SP2 of Bombyx mori (protein, UniProt P20613 17-704)
chain: T2 sequence
B1: the binding result in experiment [3] and in experiment [4] was “no binding” each time.

B2: female-specific storage protein SP1 of Bombyx mori (protein, UniProt P09179 16-747)
chain: T1 sequence
As to B2, the binding entry was “binds” in experiment [5]; “binds” in experiment [6]; “binds” in experiment [7]; “binds” in [3]; “no binding” in [8]; “no binding” in experiment [9]. For the same molecule, in experiment [10], the binding entry is “binds”.
